Test results from patent publication US10082510B2, “SRC-2 use as metabolic biomarker for diagnosis and treatment of metastatic prostate cancer” (Baylor College of Medicine, priority 2014, dated 2018).
At least one compound was matched to its structure with a doubt left.

Tested on: SRC-2 protein in C4-2 cells
Assay: Western blot of SRC-2 protein level after kinase inhibitor treatment
Type: cell-based, human
Conditions: Torin 250 nM, 12 hours
Method: FIG. 4—Glutamine stimulation induces mTORC1-dependent SRC-2 transcriptional activity. (A) Western blot analysis of FASN, SCD, SRC-2 and actin in C4-2 stable cells—shNT, sh18 and sh19 grown in high glucose (11 mM)/low glutamine (0.2 mM) or low glucose (5 mM)/high glutamine (2 mM). Actin was used as a control to normalize the protein loading. Semiquantitative levels of each band were analyzed by densitometry using UVP Vision Works LS software and relative values (compared to shNT) normalized to actin are indicated numerically under each lane. (B) C4-2 cells were cultured in presence of high glucose (11 mM)/low glutamine (0.2 mM) or low glucose (5 mM)/high glutamine (2 mM) and then treated with kinase inhibitors: BEZ-235 (1 uM); Rapamycin (100 nM); Torin (250 nM); and Wortmannin (250 nM). Western blot analyses were performed to measure the stability of SRC-2 protein. Semi-quantitative levels of each band were analyzed by densitometry using UVP Vision Works LS software and relative values (compared to DMSO) normalized to actin are indicated numerically under each lane. […] Semiquantitative levels of phospho-SRC-2 were analyzed by densitometry using UVP Vision Works LS software and relative values (compared to lane 2) normalized to actin are indicated numerically under each lane. […]

CO[C@H]1C[C@@H]2CC[C@@H](C)[C@@](O)(O2)C(=O)C(=O)N2CCCC[C@H]2C(=O)O[C@H]([C@H](C)C[C@@H]2CC[C@@H](O)[C@H](OC)C2)CC(=O)[C@H](C)/C=C(\C)[C@@H](O)[C@@H](OC)C(=O)[C@H](C)C[C@H](C)/C=C/C=C/C=C/1C [rapamycin]
SRC-2 protein level compared to DMSO-treated cells (glutamine-stimulated (low glucose 5 mM/high glutamine 2 mM), Rapamycin 100 nM): failed to mimic the effects of Torin

COC[C@H]1OC(=O)c2coc3c2[C@@]1(C)C1=C(C3=O)[C@@H]2CCC(=O)[C@@]2(C)C[C@H]1OC(C)=O [wortmannin]
SRC-2 protein level compared to DMSO-treated cells (high glucose (11 mM)/low glutamine (0.2 mM), Wortmannin 250 nM): some reduction in SRC-2 protein
